# PubChem BioAssay AID248 (DTP/NCI, 2004)
# The list shows only some results of the screen, not a fair sample: it gathers tests that were run many times, whatever their T/C, doses with no T/C, and many T/C values between a quarter and a half above the control. Further doses and runs are listed elsewhere. T/C gives the treated animals as a percentage of the vehicle group. Some entries give survivors of the animals treated and no T/C: the source files T/C as zero there, which appears to mark a toxic dose or a test without result, not a measured value. Some survivor counts are full or nearly so, which does not show that the dose was tolerated: survival well below the control is almost never listed, so the zero probably covers shortened survival too. Counts of survivors are from the toxicity check (mostly the fifth day) where no day follows; animals may have died later. Schedule codes are those of the source, read here as Q, the interval in days (D) or hours (H), X, the number of doses. Some entries hold several experiments; the values are given in rising order. Some schedule codes hold Z or #, which are not explained here. Where survival is the endpoint, this PubChem deposit counts one and a half times the control or more as active, and values a quarter to a half above the control carry no call in these data; other NCI protocols may use other cut-offs.
# Test system: L1210 leukemia ip in BDF1 mice, survival T/C
# Test: NCI In Vivo Anticancer Drug Screen. Data for tumor model L1210 Leukemia (intraperitoneal) in B6D2F1 (BDF1) mice
# Conditions: higher T/C = longer survival
# [1] = T/C endpoint: mean survival time, dose: 200.0 mg/kg/injection, schedule: Q04DX003 (ip), vehicle: saline with Tween-80
# [2] = T/C endpoint: mean survival time, dose: 400.0 mg/kg/injection, schedule: Q04DX003 (ip), vehicle: saline with Tween-80
# [3] = T/C endpoint: mean survival time, dose: 400.0 mg/kg/injection, schedule: Q04DX003 (ip), vehicle: Klucel (hydroxypropylcellulose) (HPC)
# [4] = T/C endpoint: mean survival time, dose: 100.0 mg/kg/injection, schedule: Q01DX009 (ip), vehicle: Klucel (hydroxypropylcellulose) (HPC)
# [5] = T/C endpoint: mean survival time, dose: 200.0 mg/kg/injection, schedule: Q01DX009 (ip), vehicle: Klucel (hydroxypropylcellulose) (HPC)
# [6] = T/C endpoint: mean survival time, dose: 300.0 mg/kg/injection, schedule: Q01DX001 (ip), vehicle: saline
# [7] = T/C endpoint: mean survival time, dose: 400.0 mg/kg/injection, schedule: Q01DX001 (ip), vehicle: saline
smiles,measurement,setting,value
CC(CCC(=O)O)C1CCC2C3CCC4CC(OC=O)CCC4(C)C3CC(OC=O)C12C (stereo not drawn),survivor count,[1],6 of 6
same,survivor count,[2],6 of 6
CC(C)C(NC(=O)CI)C(=O)Nc1ccc(C(=O)O)c(O)c1 (stereo not drawn),survivor count,[3],0 of 6
CCOC(=O)C1C2OC(=O)C(C(=O)C2CN(CCCl)CCCl)C1C1CC=C(CC2=CCC(C3C4C(=O)OC(C(CN(CCCl)CCCl)C4=O)C3C(=O)OCC)CC2)CC1 (stereo not drawn),T/C,"T/C endpoint: mean survival time, dose: 6.25 mg/kg/injection, schedule: Q01DX009 (ip), vehicle: Klucel (hydroxypropylcellulose) (HPC)",143 % of control
same,T/C,"T/C endpoint: mean survival time, dose: 12.5 mg/kg/injection, schedule: Q01DX009 (ip), vehicle: Klucel (hydroxypropylcellulose) (HPC)",128 % of control
same,T/C,"T/C endpoint: mean survival time, dose: 25.0 mg/kg/injection, schedule: Q01DX009 (ip), vehicle: Klucel (hydroxypropylcellulose) (HPC)",130 % of control
same,T/C,"T/C endpoint: mean survival time, dose: 50.0 mg/kg/injection, schedule: Q01DX009 (ip), vehicle: Klucel (hydroxypropylcellulose) (HPC)",128 % of control
same,T/C,[4],144 % of control
same,survivor count,[4],5 of 6 and 10 of 10
same,survivor count,[5],10 of 10
same,T/C,"T/C endpoint: mean survival time, dose: 266.0 mg/kg/injection, schedule: Q04DX003 (ip), vehicle: Klucel (hydroxypropylcellulose) (HPC)",126 % of control
same,survivor count,"T/C endpoint: mean survival time, dose: 400.0 mg/kg/injection, schedule: Q01DX009 (ip), vehicle: Klucel (hydroxypropylcellulose) (HPC)",0 of 10
same,T/C,[3],"125, 135, 141 % of control"
same,T/C,"T/C endpoint: mean survival time, dose: 600.0 mg/kg/injection, schedule: Q04DX003 (ip), vehicle: Klucel (hydroxypropylcellulose) (HPC)",134 and 144 % of control
Nc1cc(C(=O)Nc2ccc(C3=NCCCN3)cc2)ccc1C(=O)Nc1ccc(C2=NCCCN2)cc1,survivor count,"T/C endpoint: mean survival time, dose: 30.0 mg/kg/injection, schedule: Q01DX Z (ip), vehicle: saline",0 of 6
same,survivor count,"T/C endpoint: mean survival time, dose: 60.0 mg/kg/injection, schedule: Q01DX Z (ip), vehicle: saline",0 of 6
same,survivor count,"T/C endpoint: mean survival time, dose: 120.0 mg/kg/injection, schedule: Q01DX Z (ip), vehicle: saline",0 of 6
Cn1c2ccccc2c2nn3cnnc3nc21,survivor count,"T/C endpoint: mean survival time, dose: 400.0 mg/kg/injection, schedule: Q04DX002 (ip), vehicle: saline with Tween-80",2 of 3
CCOS(=O)(=O)CCCCS(=O)(=O)OCC,survivor count,"T/C endpoint: median survival time, dose: 100.0 mg/kg/injection, schedule: Q01DX009 (ip), vehicle: Klucel (hydroxypropylcellulose) (HPC)",0 of 6
same,survivor count,"T/C endpoint: median survival time, dose: 200.0 mg/kg/injection, schedule: Q01DX009 (ip), vehicle: Klucel (hydroxypropylcellulose) (HPC)",0 of 6
same,survivor count,"T/C endpoint: median survival time, dose: 400.0 mg/kg/injection, schedule: Q01DX009 (ip), vehicle: Klucel (hydroxypropylcellulose) (HPC)",0 of 6
CCCCCCC(/C=N/N=C(N)N)=N\N=C(N)N,survivor count,"T/C endpoint: mean survival time, dose: 60.0 mg/kg/injection, schedule: Q01DX Z (ip), vehicle: carboxymethylcellulose (CMC)",1 of 6
same,survivor count,"T/C endpoint: mean survival time, dose: 120.0 mg/kg/injection, schedule: Q01DX Z (ip), vehicle: carboxymethylcellulose (CMC)",0 of 6
same,survivor count,"T/C endpoint: mean survival time, dose: 120.0 mg/kg/injection, schedule: Q01DX Z (oral), vehicle: carboxymethylcellulose (CMC)",2 of 6
CC(=O)Nc1cc(Cl)c(Nc2cc(S(=O)(=O)O)c(N)c3c2C(=O)c2ccccc2C3=O)c(Cl)c1,survivor count,[6],2 of 6
CCCCN(CCCC)C(C)=O,survivor count,[7],0 of 4
CCN=C(c1ccc(NC(=O)c2ccc(C(=O)Nc3ccc(C(=NCC)N(CC)C(=O)Nc4ccc(OCC)cc4)cc3)cc2)cc1)N(CC)C(=O)Nc1ccc(OCC)cc1,T/C,"T/C endpoint: mean survival time, dose: 15.0 mg/kg/injection, schedule: Q01DX015 (ip), vehicle: methylcellulose (MC)",132 % of control
same,survivor count,"T/C endpoint: mean survival time, dose: 30.0 mg/kg/injection, schedule: Q01DX015 (ip), vehicle: methylcellulose (MC)",0 of 6
same,survivor count,"T/C endpoint: mean survival time, dose: 62.0 mg/kg/injection, schedule: Q01DX015 (ip), vehicle: methylcellulose (MC)",0 of 6
same,survivor count,"T/C endpoint: mean survival time, dose: 125.0 mg/kg/injection, schedule: Q01DX015 (ip), vehicle: methylcellulose (MC)",0 of 6
same,survivor count,"T/C endpoint: mean survival time, dose: 250.0 mg/kg/injection, schedule: Q01DX015 (ip), vehicle: methylcellulose (MC)",0 of 6
same,survivor count,"T/C endpoint: mean survival time, dose: 500.0 mg/kg/injection, schedule: Q01DX015 (ip), vehicle: methylcellulose (MC)",0 of 6
Clc1c2c(nc3ccccc13)CCCC2,survivor count,[7],1 of 4
O=C1OCCN1C(=O)c1ccc(Cl)c(Cl)c1,survivor count,[5],6 of 6
Nc1ccc(N)c(N)n1,survivor count,"T/C endpoint: mean survival time, dose: 75.0 mg/kg/injection, schedule: Q01DX001 (ip), vehicle: saline",0 of 6
same,survivor count,"T/C endpoint: mean survival time, dose: 150.0 mg/kg/injection, schedule: Q01DX001 (ip), vehicle: saline",0 of 6
same,survivor count,[6],0 of 6
CC(=O)c1ccc(F)cc1,survivor count,[3],6 of 6
O=S(=O)(OCC#CCOS(=O)(=O)c1ccc(Cl)c(Cl)c1)c1ccc(Cl)c(Cl)c1,survivor count,"T/C endpoint: mean survival time, dose: 50.0 mg/kg/injection, schedule: Q01DX009 (ip), vehicle: saline with Tween-80",4 of 6
same,survivor count,"T/C endpoint: mean survival time, dose: 100.0 mg/kg/injection, schedule: Q01DX009 (ip), vehicle: saline with Tween-80",1 of 6
same,survivor count,"T/C endpoint: mean survival time, dose: 200.0 mg/kg/injection, schedule: Q01DX009 (ip), vehicle: saline with Tween-80",0 of 6
same,survivor count,"T/C endpoint: mean survival time, dose: 400.0 mg/kg/injection, schedule: Q01DX009 (ip), vehicle: saline with Tween-80",0 of 6
Cn1cnc(=O)c2ccccc21,survivor count,"T/C endpoint: mean survival time, dose: 400.0 mg/kg/injection, schedule: Q04DX003 (ip), vehicle: saline",1 of 3
O=C1c2ccccc2C(=O)c2c(O)c3c(c(O)c21)CC=CC3,survivor count,[1],6 of 6
same,survivor count,"T/C endpoint: mean survival time, dose: 300.0 mg/kg/injection, schedule: Q04DX003 (ip), vehicle: saline with Tween-80",6 of 6
same,survivor count,[2],6 of 6
CC1(C)CN1Sc1ccc([N+](=O)[O-])cc1 (stereo not drawn),survivor count,"T/C endpoint: mean survival time, dose: 200.0 mg/kg/injection, schedule: Q04DX002 (ip), vehicle: Klucel (hydroxypropylcellulose) (HPC)",1 of 3
same,survivor count,"T/C endpoint: mean survival time, dose: 400.0 mg/kg/injection, schedule: Q04DX002 (ip), vehicle: Klucel (hydroxypropylcellulose) (HPC)",0 of 3
O=C(COc1ccc(Cl)c(Cl)c1)Nc1ccc[n+](Cc2ccccc2S(=O)(=O)F)c1,survivor count,[1],2 of 6
same,survivor count,[2],1 of 6
CN(N=O)C(=O)Nc1ccc(F)cc1,T/C,"T/C endpoint: mean survival time, dose: 50.0 mg/kg/injection, schedule: Q01DX Z (ip), vehicle: carboxymethylcellulose (CMC)",129 % of control
same,survivor count,"T/C endpoint: mean survival time, dose: 100.0 mg/kg/injection, schedule: Q01DX Z (ip), vehicle: carboxymethylcellulose (CMC)",5 of 6
same,T/C,"T/C endpoint: mean survival time, dose: 150.0 mg/kg/injection, schedule: Q01DX001 (ip), vehicle: carboxymethylcellulose (CMC)",130 % of control
same,survivor count,"T/C endpoint: mean survival time, dose: 300.0 mg/kg/injection, schedule: Q01DX001 (ip), vehicle: carboxymethylcellulose (CMC)",6 of 10
same,survivor count,"T/C endpoint: mean survival time, dose: 600.0 mg/kg/injection, schedule: Q01DX001 (ip), vehicle: carboxymethylcellulose (CMC)",0 of 10
same,survivor count,"T/C endpoint: mean survival time, dose: 1200.0 mg/kg/injection, schedule: Q01DX001 (ip), vehicle: carboxymethylcellulose (CMC)",0 of 10
O=CNc1ccc(Cl)cc1,survivor count,"T/C endpoint: mean survival time, dose: 100.0 mg/kg/injection, schedule: Q04DX003 (ip), vehicle: Klucel (hydroxypropylcellulose) (HPC)",6 of 6
same,survivor count,[3],6 of 6
